These results are taken from article PMC6745036.

Amino acid sequences for entries named in this document (tags omitted).
UniProt Q9R210: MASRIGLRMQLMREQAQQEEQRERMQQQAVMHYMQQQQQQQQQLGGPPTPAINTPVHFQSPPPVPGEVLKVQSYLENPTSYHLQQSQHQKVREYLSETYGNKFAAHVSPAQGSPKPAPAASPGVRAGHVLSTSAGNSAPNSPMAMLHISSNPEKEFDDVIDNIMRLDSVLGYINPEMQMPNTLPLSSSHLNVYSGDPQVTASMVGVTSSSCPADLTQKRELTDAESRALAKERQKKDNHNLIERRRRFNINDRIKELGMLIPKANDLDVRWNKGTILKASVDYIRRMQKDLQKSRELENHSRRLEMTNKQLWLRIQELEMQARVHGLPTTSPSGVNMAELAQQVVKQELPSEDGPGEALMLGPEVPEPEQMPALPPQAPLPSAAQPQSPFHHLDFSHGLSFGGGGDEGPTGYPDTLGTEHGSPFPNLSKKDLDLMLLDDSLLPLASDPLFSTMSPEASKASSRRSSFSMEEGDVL

The target of this test is T1, CARM1 (mouse (endogenous in C57BL/6 skin flap tissue)) (UniProt Q9WVG6).
T1 sequence: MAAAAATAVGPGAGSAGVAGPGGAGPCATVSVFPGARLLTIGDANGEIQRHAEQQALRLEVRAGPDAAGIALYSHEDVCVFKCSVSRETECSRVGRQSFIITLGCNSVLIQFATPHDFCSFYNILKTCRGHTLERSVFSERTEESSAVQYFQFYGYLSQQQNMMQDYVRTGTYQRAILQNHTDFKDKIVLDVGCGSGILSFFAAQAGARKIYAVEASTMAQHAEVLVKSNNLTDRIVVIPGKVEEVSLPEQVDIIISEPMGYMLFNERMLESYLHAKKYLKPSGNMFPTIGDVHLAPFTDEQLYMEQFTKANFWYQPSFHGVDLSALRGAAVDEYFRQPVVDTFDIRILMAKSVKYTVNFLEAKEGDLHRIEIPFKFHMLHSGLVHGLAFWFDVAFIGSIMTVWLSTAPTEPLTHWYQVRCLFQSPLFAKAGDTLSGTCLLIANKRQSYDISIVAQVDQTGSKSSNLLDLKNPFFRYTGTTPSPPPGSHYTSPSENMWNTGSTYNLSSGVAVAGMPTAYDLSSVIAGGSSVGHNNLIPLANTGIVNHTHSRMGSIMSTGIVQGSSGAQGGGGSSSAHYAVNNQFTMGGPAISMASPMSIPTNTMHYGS
The test is described as follows: co-IP; Pierce Co-Immunoprecipitation Kit; antibodies immobilised on coupling resin, mixed with flap lysate at 4 degrees Celsius overnight, eluted proteins western blotted; skin flaps of mice of the Control, SUC (sucrose) and TRE (trehalose) groups, POD 7. On the technique in general: Immunoblotting shows a protein as a band on a membrane.

No constants are given. Whether binding was seen depends on the method and setting. In cells and extracts the contact can be indirect. Some binding calls cover weakened binding; strength is not graded here.

TFEB (from UniProt Q9R210 1-475): the binding result is on record as “binds”.
